# Assay results taken from PubChem BioAssay AID651768 (National Center for Advancing Translational Sciences (NCATS), 2012).
# Amino acid sequences for entries named in this document (tags omitted).
# UniProt Q14191, whole entry, looked up: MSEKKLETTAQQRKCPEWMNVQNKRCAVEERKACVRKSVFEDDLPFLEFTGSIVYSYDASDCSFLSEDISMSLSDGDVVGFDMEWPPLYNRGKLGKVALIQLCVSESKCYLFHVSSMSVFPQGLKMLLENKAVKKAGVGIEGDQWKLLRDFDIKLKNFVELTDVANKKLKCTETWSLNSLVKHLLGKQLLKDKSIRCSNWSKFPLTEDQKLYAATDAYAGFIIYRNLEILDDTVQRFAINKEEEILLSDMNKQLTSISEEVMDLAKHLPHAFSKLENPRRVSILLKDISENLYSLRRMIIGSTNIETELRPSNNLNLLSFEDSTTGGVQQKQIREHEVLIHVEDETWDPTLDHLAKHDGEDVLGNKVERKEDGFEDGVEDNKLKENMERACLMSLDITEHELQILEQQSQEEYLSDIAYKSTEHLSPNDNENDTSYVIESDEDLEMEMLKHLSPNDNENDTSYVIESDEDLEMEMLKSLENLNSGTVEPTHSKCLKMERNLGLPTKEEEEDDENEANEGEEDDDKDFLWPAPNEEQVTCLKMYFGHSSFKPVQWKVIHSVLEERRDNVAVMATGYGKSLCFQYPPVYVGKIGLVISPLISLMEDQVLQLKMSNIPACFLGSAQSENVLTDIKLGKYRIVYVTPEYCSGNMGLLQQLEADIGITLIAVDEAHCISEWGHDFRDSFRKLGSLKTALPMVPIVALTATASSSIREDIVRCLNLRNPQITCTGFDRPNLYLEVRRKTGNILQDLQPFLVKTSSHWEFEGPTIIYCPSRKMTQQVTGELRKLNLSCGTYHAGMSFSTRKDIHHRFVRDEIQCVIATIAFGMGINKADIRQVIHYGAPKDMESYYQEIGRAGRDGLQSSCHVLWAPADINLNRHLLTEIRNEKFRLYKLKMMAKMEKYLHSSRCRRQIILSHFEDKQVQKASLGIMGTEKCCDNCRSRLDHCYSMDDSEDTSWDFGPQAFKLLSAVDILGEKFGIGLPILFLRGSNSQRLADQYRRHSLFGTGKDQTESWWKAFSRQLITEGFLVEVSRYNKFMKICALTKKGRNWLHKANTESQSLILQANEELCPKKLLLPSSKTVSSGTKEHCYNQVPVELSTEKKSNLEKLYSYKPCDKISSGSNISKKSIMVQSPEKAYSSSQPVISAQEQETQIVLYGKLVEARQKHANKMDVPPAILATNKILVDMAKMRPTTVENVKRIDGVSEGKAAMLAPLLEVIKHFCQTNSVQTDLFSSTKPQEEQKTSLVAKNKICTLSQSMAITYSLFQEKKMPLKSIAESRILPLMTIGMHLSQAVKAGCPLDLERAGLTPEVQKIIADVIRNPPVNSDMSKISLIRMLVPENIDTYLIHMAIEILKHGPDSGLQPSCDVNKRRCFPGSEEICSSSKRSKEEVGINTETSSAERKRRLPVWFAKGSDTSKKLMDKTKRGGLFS
# About 1,700 (0.47%) of roughly 360,000 compounds were called active. Inconclusive means that the source gave no clear call. Such entries were picked first, then a sample of the others. Calls come from the whole dose curve; as a rule, active = well fitted inhibition curve with a large enough effect; inconclusive = small, poorly fitted or top-dose-only effect; inactive = no such curve, though single readings can be large or run the other way. Where the call is inconclusive, the potency comes from a doubtful curve fit.
# Biological target: Bifunctional 3'-5' exonuclease/ATP-dependent helicase WRN (Homo sapiens) (UniProt Q14191)
# Experiment: qHTS for Inhibitors of WRN Helicase; note: nearly all actives have a fitted effect of over 55% in size
# Conditions: WRN helicase unwinding, fluorescent forked duplex, kinetic; activity change, negative = inhibition: at 114 µM (top of the series) unless noted
# Procedure, shortened: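 Screening of the MLSMR collection measured strand separation of a quenched forked DNA duplex (100 nM) by 20 nM WRN with 2 mM ATP, all final. Compounds were preincubated with enzyme 15 min at room temperature.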
# % is set by controls: 0 for no effect and ±100 for the full control effect; potency is the fitted concentration of half-maximal effect.
SMILES,Potency,"activity change, negative = inhibition"
COc1ccc(OC)c(NC(=O)CSc2ncnc3sc(C)cc23)c1,"inconclusive: 17.8 µM [inhibitor, full curve]",
CC(C)CC1=C/C(=C/c2ccc(-c3ccccc3)o2)C(=O)O1,active: 50.1 µM,
NC(=O)[C@@H]1CCCCNc2c(I)cc([N+](=O)[O-])cc2C(=O)N[C@@H](CCC(=O)O)C(=O)N[C@@H](CO)C(=O)N1,"inconclusive: 44.7 µM [inhibitor, partial curve]",
Cc1[nH]c2ccccc2c1/C=N/NC(=O)C1CC1(c1ccccc1)c1ccccc1 (stereo not drawn),"inconclusive: 39.8 µM [inhibitor, single point]",
O=C(c1cn(-c2ccc(Cl)c(Cl)c2)nn1)C1CC1,inactive,
COc1cccc(NC(=O)CSc2ncc(S(=O)(=O)c3ccccc3)c(=O)[nH]2)c1,inactive,
CCc1cc(OCCCCNCc2ccccc2)ccc1Cl,"inconclusive: 39.8 µM [inhibitor, single point]",
CCOC(=O)c1c(/N=C/N(C)C)sc(/C=N/Nc2ccccc2)c1-c1ccccc1,inactive,
Cc1ccc(-c2cc(C(=O)N3CCN(c4ncccn4)CC3)c3cc(Br)ccc3n2)o1,"inconclusive: 56.2 µM [inhibitor, partial curve, poor fit]",
COCc1cc(=O)n2[nH]c(C)c(-c3ccccc3)c2n1,"inconclusive: 89.1 µM [inhibitor, single point]",
O=C(O)c1ccc(-n2ncc(Cl)c(Cl)c2=O)cc1,,inactive: -9.93% [at 11.6 µM]
Cc1ccc2occ(/C=C/C(=O)c3ccccc3O)c(=O)c2c1,"inconclusive: 89.1 µM [inhibitor, single point]",
Cc1ccc(NC(=O)COC(=O)/C=C/c2ccco2)cc1S(=O)(=O)N(C)C,inactive,
COc1ccc(CCN(/C=C2\Sc3ccccc3C2=O)C(C)=O)cc1OC,"inconclusive: 100 µM [inhibitor, single point]",
Cc1ccc(S(=O)(=O)Nc2ccc(N3CCCCC3)cc2)cc1,inactive,
CC(=O)c1cccc(NC(=O)CSc2ccc(-c3ccco3)nn2)c1,"inconclusive: 70.8 µM [inhibitor, single point]",
O=C(Cc1cccs1)Nc1nnc(SCc2ccc(C(F)(F)F)cc2)s1,"inconclusive: 22.4 µM [inhibitor, single point]",
Cc1ccc(/C=C/C(=O)O)cc1S(=O)(=O)NCCO,inactive,
Cn1c(SCC(=O)Nc2nncs2)nnc1C1CC1,"inconclusive: 50.1 µM [inhibitor, partial curve]",
Clc1ccc(-c2nnc(-c3ccco3)nc2N2CCCCC2)cc1,"inconclusive: 20 µM [inhibitor, full curve]",
N/C(=N\OC(=O)c1cnn(-c2ccccc2)c1C(F)(F)F)c1cc(C(F)(F)F)cc(C(F)(F)F)c1,"inconclusive: 39.8 µM [inhibitor, single point]",
NC(=O)c1cc(-c2csc(NCCc3ccccc3)n2)ccc1O,"inconclusive: 89.1 µM [inhibitor, single point]",
C[C@H](CO)N1C[C@H](C)[C@H](CN(C)C(=O)Cc2cccnc2)Oc2ncc(Br)cc2C1=O,inactive,
CCOC(=O)CC1=CCc2c1ccc(OC)c2OC,"inconclusive: 15.8 µM [inhibitor, single point]",
CCOC(=O)C1=C(Cc2ccc(F)cc2)C(=O)c2ccccc2C1=O,active: 50.1 µM,

SMILES,Potency,"activity change, negative = inhibition"
N#CC1=C2SCN(Cc3ccccc3)CN2C(=O)CC1c1ccccc1F (stereo not drawn),inactive,
CSc1ccccc1NC(=O)C(C)N(C)CC(=O)N1CCN(Cc2ccccc2)CC1 (stereo not drawn),"inconclusive: 22.4 µM [inhibitor, full curve]",
CCOC(=O)c1sc(N/N=C/c2cc(Br)c(O)c(OC)c2)nc1C,"inconclusive: 79.4 µM [inhibitor, partial curve]",
O=C(Nc1cccc(O)c1)c1cccc(S(=O)(=O)N2CCCC2)c1,,inconclusive: -44.4% [inhibitor] [at 57.1 µM]
NSc1nc(N)c2nc(-c3ccccc3)c(-c3ccccc3)nc2n1,inactive,
CC1CCCCN1C(=O)COc1ccccc1F (stereo not drawn),inactive,
COc1cc(-c2cc3nc(NCc4ccco4)ccn3n2)cc(OC)c1OC,inactive,
O=C(Nc1ccc(-c2ccccc2)cc1)c1ccccc1,inactive,
O=C(O)c1ccc(N2C(=O)/C(=C/c3ccc(-c4ccc([N+](=O)[O-])cc4)o3)C=C2c2ccccc2)cc1,active: 56.2 µM,
Cc1ncc([N+](=O)[O-])n1CCOC(=O)c1cc(Cl)cc(Cl)c1N,"inconclusive: 44.7 µM [inhibitor, partial curve]",
C=CCn1c(COc2ccccc2)nnc1SCC(=O)N/N=C/c1cc(Cl)ccc1O,,inconclusive: -45.7% [inhibitor] [at 57.1 µM]
O=C(NC1CCCCC1)Oc1cc2oc(=O)sc2cc1Br,"inconclusive: 8.91 µM [inhibitor, full curve]",
COc1ccc(C)cc1S(=O)(=O)Nc1cccc(-c2cn3cccnc3n2)c1,"inconclusive: 14.1 µM [inhibitor, partial curve]",
COc1cccc(CNC(=O)c2c[nH]n3c(=O)c(Cl)c(C)nc23)c1,"inconclusive: 10 µM [inhibitor, partial curve]",
C[C@@H]1O[C@@H](OC[C@H]2O[C@@H](Oc3cc(O)c4c(=O)cc(-c5ccc(O)c(O)c5)oc4c3)[C@H](O)[C@@H](O)[C@@H]2O)[C@H](O)[C@H](O)[C@H]1O,inactive,
Cc1ccc(/C=C2\SC(=S)N(/N=C/c3cc([N+](=O)[O-])ccc3O)C2=O)o1,active: 35.5 µM,
COc1ccc2nc(SCC(=O)Nc3ccc(S(=O)(=O)Nc4onc(C)c4C)cc3)[nH]c2c1,"inconclusive: 70.8 µM [inhibitor, partial curve]",
Cc1ccc(S(=O)(=O)N2CC3(O)CN(C(=O)OC(C)C)N(C(=O)OC(C)C)CC3(OC(=O)Nc3cccs3)C2)cc1 (stereo not drawn),inactive,
CCCC(CCC(=O)Nc1cc([N+](=O)[O-])ccc1O)C(=O)O (stereo not drawn),inactive,
CN(C(=O)CSc1cccc[n+]1[O-])C1CCCCC1,"inconclusive: 31.6 µM [inhibitor, full curve, poor fit]",
O=C(NCCCn1ccnc1)C(=O)Nc1ccccc1,inactive,
Cc1ccc(C(=O)Nc2nc(-c3ccco3)c(-c3ccco3)s2)o1,"inconclusive: 28.2 µM [inhibitor, full curve]",
Cc1ccccc1NC(=O)C1CCCN1/C=C/C(=O)C(F)(F)F (stereo not drawn),"inconclusive: 31.6 µM [inhibitor, single point]",
COc1cc(/C=C(\NC(C)=O)C(=O)Nc2ccccc2C)ccc1OC(C)=O,"inconclusive: 10 µM [inhibitor, partial curve]",
CCCC(=O)c1cc2c(cc1NC(=O)c1ccccc1F)OCCO2,inactive,

# One compound at a time, as listed above:
# Cn1c(SCC(=O)Nc2nncs2)nnc1C1CC1 as listed: Potency: inconclusive: 50.1 µM [inhibitor, partial curve]
# COc1cccc(CNC(=O)c2c[nH]n3c(=O)c(Cl)c(C)nc23)c1 as listed: Potency: inconclusive: 10 µM [inhibitor, partial curve]
# COc1cc(-c2cc3nc(NCc4ccco4)ccn3n2)cc(OC)c1OC as listed: Potency: inactive
# Cc1ccc(-c2cc(C(=O)N3CCN(c4ncccn4)CC3)c3cc(Br)ccc3n2)o1 as listed: Potency: inconclusive: 56.2 µM [inhibitor, partial curve, poor fit]

# Continued.

SMILES,Potency,"activity change, negative = inhibition"
CSc1nc(O)c(C(c2ccccc2)c2c(O)nc(SC)[nH]c2=O)c(=O)[nH]1,inactive,
COc1ccc(-n2ncc(Cl)c(Cl)c2=O)cc1,"inconclusive: 70.8 µM [inhibitor, single point]",
COc1ccc(NC(=O)CN(C)CC(=O)Nc2ccccc2SC)cc1,active: 28.2 µM,
O=c1[nH]c2ccccc2c2nc(-c3cccc(S(=O)(=O)N4CCCC4)c3)nn12,"inconclusive: 100 µM [inhibitor, single point]",
COc1cc2c(cc1NC(=O)C(Cl)Cl)-c1ccc(NC(=O)C(Cl)Cl)cc1C2,"inconclusive: 15.8 µM [inhibitor, full curve, poor fit]",
CCC(c1nnnn1C1CCCC1)N1CCN(c2ccccc2F)CC1 (stereo not drawn),inactive,
CC1=C(C(=O)Nc2ccccc2)C2(CCCCC2)C(C#N)=C(SCC(N)=O)N1,inactive,
O=C1COc2ccc(C(=O)COC(=O)/C=C/c3ccc(Br)o3)cc2N1,active: 35.5 µM,
S=C(SSC(=S)N1CCOCC1)N1CCOCC1,inactive,
Cc1ccc(C(c2ccc(C)o2)c2cccc([N+](=O)[O-])c2O)o1,"inconclusive: 16.8 µM [inhibitor, partial curve]",
Cn1c(N)c(C(=O)COC(=O)C2Cc3ccccc3CN2S(C)(=O)=O)c(=O)n(C)c1=O (stereo not drawn),"inconclusive: 56.2 µM [inhibitor, partial curve]",
Cc1ccc(NC2SC(=O)N(Cc3cccc(C(=O)O)c3)C2=O)cc1 (stereo not drawn),inactive,
Cc1ccccc1OCC(=O)N/N=C/c1ccc([N+](=O)[O-])o1,,inactive: -1.33% [at 11.6 µM]
CCC(C)Sc1nc2c(c(=O)[nH]1)C(c1cccs1)C1=C(CCCC1=O)N2 (stereo not drawn),inactive,
Cc1cccc2c(=O)cc(C)n(Cc3ccccc3)c12,"inconclusive: 8.91 µM [inhibitor, partial curve]",
Cc1cc(NS(=O)(=O)c2ccc(NC(=O)COc3ccc(Br)cc3)cc2)nc(C)n1,inactive,
CCc1ccc(S(=O)(=O)/N=C2/C=C(Sc3ncn[nH]3)C(=O)c3ccccc32)cc1,active: 20 µM,
CCn1c(C)c(CS(=O)(=O)c2ccccc2)[nH]c1=O,active: 17.8 µM,
COc1ccc(-c2noc(N3CCC(C(=O)NCCCN4CCCC(C)C4)CC3)n2)cc1 (stereo not drawn),inactive,
COc1ccc(-c2cc(-c3c(O)c(OC)c4occc4c3OC)[nH]n2)cc1OC,"inconclusive: 50.1 µM [inhibitor, partial curve]",
C=CCn1c(SCC(=O)NC2CCCC2)nc2scc(-c3ccco3)c2c1=O,"inconclusive: 56.2 µM [inhibitor, partial curve]",
CC(=O)c1c(C)[nH]c(C(=O)CSc2nnc(-c3cccs3)n2Cc2ccccc2)c1C,inactive,
O=C(O)c1ccc(NS(=O)(=O)c2ccc(Cl)c(Cl)c2)cc1O,"inconclusive: 79.4 µM [inhibitor, single point]",
